# Literature values in US20090074766A1, “Methods of inhibiting HIV-2 infection” (priority 2007, published 2009).
# At least one compound was matched to its structure with a doubt left.
# Tested on: HIV-1
# Conditions: treatment period of 10-14 days, dose-dependent; cited from earlier work
structure (smiles),measurement,value
"Cc1nnc(C(C)C)n1C1CC2CCC(C1)N2CC[C@H](NC(=O)C1CCC(F)(F)CC1)c1ccccc1 (stereo partly shown) [UK-427,857]",mean reductions in HIV-1 RNA levels,~1 log10
